PubChem BioAssay AID1224826 – NIAID | 2016
Here is an unselected part of about 17,000 deposited reagents. About 1,110 of them (6.6%) count as active. 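Active means lowered or raised reporter signal; replicate intensities are raw and not normalised per plate.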 Entries without a mark were called inactive. Further read-outs or replicates are left out here.

Screen: 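Genes that change LPS-induced Tnf promoter activity in mouse macrophages when knocked down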 (primary screen)
Cells: RAW264.7 G9 macrophages from mouse bearing reporters for p65 (GFP) and the Tnf promoter (mCherry)
Knock-down reagent: siRNA pool against mouse genes, 100 nM
Timing: 16 h of LPS stimulation, after 2 days of siRNA transfection
Challenge: bacterial lipopolysaccharide (Salmonella minnesota R595), 10 ng/ml
Read-out: 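Imaged Tnf reporter mCherry in nuclei, minus background, normalised per plate to the median and expressed as robust z-scores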
Reading the numbers: Tnf reporter robust z-score: higher = stronger Tnf promoter reporter signal after LPS
Rule for the call: 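a well counts as active at a score of -1.3 or below (Tlr4 knock-down control median) or above 3 (raised signal); controls and wells holding fewer than 50 cells are excluded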
Meaning of the calls: active = Tnf reporter clearly lowered or raised; inactive = no clear change in Tnf reporter

For Uqcr11 (ubiquinol-cytochrome c reductase, complex III subunit XI), the entry reads Tnf reporter robust z-score -0.24; fewer than 50 cells in well enough cells in well. Against Ankrd33 (ankyrin repeat domain 33), the values are Tnf reporter robust z-score -1.14; fewer than 50 cells in well enough cells in well. For Emp1 (epithelial membrane protein 1) the deposit lists Tnf reporter robust z-score 0.77; fewer than 50 cells in well enough cells in well. For Kcnq1 (potassium voltage-gated channel, subfamily Q, member 1), the values are Tnf reporter robust z-score -0.02; fewer than 50 cells in well enough cells in well.

Sorted by “Tnf reporter robust z-score” (lowest first): 2 of the entries above
Ankrd33 (ankyrin repeat domain 33) | Tnf reporter robust z-score = -1.14; fewer than 50 cells in well = enough cells in well
Emp1 (epithelial membrane protein 1) | Tnf reporter robust z-score = 0.77; fewer than 50 cells in well = enough cells in well

Next reagents follow.
Gjb4 (gap junction protein, beta 4) showed Tnf reporter robust z-score -0.41; fewer than 50 cells in well enough cells in well. Knock-down of Slc34a3 gave: fewer than 50 cells in well fewer than 50 cells per well; well left out of calls. After knock-down of Trmt5 (TRM5 tRNA methyltransferase 5), the screen gave Tnf reporter robust z-score -1.29; fewer than 50 cells in well enough cells in well. For Bhlhb9 (basic helix-loop-helix domain containing, class B9), the entry reads Tnf reporter robust z-score -0.44; fewer than 50 cells in well enough cells in well. Depletion of Ppp3r1 resulted in: Tnf reporter robust z-score 0.07; fewer than 50 cells in well enough cells in well. After knock-down of Ivl (involucrin) the results were Tnf reporter robust z-score 0.2; fewer than 50 cells in well enough cells in well.

Knock-down of Amz1 (archaelysin family metallopeptidase 1) gave: Tnf reporter robust z-score -0.03; fewer than 50 cells in well enough cells in well. Kdr (kinase insert domain protein receptor) gave Tnf reporter robust z-score 1.75; fewer than 50 cells in well enough cells in well. After knock-down of Cimip2a (ciliary microtubule inner protein 2A) the results were fewer than 50 cells in well fewer than 50 cells per well; well left out of calls. With knock-down of Phyhipl (phytanoyl-CoA hydroxylase interacting protein-like) the results were Tnf reporter robust z-score 2.18; fewer than 50 cells in well enough cells in well.
